In assay [1] the target is N-terminal FLAG-tagged DPY-30 construct (in pT7CFE1 vector) (UniProt Q9C005). Description: co-immunoprecipitation of in vitro translated proteins with anti-HA gel, anti-FLAG western blot; only R2R1 and DPY-30 in the mixture (lane 2). Background: A western blot detects proteins with antibodies after separation by electrophoresis.
In assay [2] the target is N-terminal FLAG-tagged RNF2 construct (in pT7CFE1 vector) (UniProt Q99496). The experiment in a line: co-immunoprecipitation of in vitro translated proteins with anti-HA gel, anti-FLAG western blot; other FLAG-tagged PcG/TrxG proteins present.

Sequences of proteins named here, by UniProt entry; tags and fusion partners are left off.
UniProt Q9C005: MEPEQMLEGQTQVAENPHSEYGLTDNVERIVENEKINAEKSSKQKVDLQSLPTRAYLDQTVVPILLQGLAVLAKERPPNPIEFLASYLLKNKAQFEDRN
UniProt Q99496: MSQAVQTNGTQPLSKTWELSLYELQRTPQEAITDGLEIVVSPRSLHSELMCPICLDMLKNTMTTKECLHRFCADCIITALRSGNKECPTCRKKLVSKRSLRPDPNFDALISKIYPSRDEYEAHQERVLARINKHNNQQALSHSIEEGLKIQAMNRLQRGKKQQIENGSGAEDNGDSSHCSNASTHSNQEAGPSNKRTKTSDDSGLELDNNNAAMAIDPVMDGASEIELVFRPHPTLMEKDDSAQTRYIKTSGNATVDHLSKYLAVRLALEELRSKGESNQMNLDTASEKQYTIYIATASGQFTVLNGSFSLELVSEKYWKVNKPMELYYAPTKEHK
UniProt B3EWG3: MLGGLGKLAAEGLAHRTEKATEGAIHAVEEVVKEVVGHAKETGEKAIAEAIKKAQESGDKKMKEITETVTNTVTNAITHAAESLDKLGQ

No constants are given. Whether binding was seen depends on the method and setting. In cells and extracts the contact can be indirect. Some results given as binding are weak or reduced against the parent protein; the word gives no strength.

“N-terminal HA-tagged R2R1 construct (in pT7CFE1 vector) (from UniProt B3EWG3 1-89)”: the binding result in assay [1] and in assay [2] was “binds” in each case.

Values taken from patent US20180325937A1.
